Data from the supplement of paper PMC12578635.
± gives the standard deviation of the averaged measurements. This is one part of the list. Single values are uncertain, as repeats are few or missing.

These compounds were tested on RAW 264.7 macrophages infected with S. aureus JE2-lux (assay: host macrophage viability (CellTiter-Fluor) relative to DMSO vehicle; higher = more viable host cells). Conditions: 10 µM; treatment time 4 h; gentamicin 50 µg/ml.

Row | SMILES | host macrophage viability [%]
1 | O=C(Nc1nc2c(cc3c4c(cccc42)CC3)s1)c1ccc(N2C(=O)CCC2=O)cc1 | 104 ± 13
2 | C=CCOc1ccccc1NC(=O)c1cccc(-n2nc(C)c(Cl)c2C)c1 | 109
3 | O=C(NNc1nc2cc3c(cc2s1)OCO3)c1cccc(F)c1 | 105 ± 4.3
4 | Cc1ccc2nc(NC(=O)CSc3c(C)cnc4c3c(=O)n(C)c(=O)n4C)sc2c1 | 114
5 | NC(=O)C1CCN(C2=NC(=O)/C(=C\c3ccc(Cl)cc3Cl)S2)CC1 | 99.8
6 | O=C1/C(=C\c2ccncc2)SC(=S)N1Nc1ccc([N+](=O)[O-])cc1[N+](=O)[O-] | 124
7 | Cc1ccc(NS(=O)(=O)c2cc(-c3noc(C4CC4)n3)cs2)nc1 | 117
8 | O=C(CSc1nnc(Cc2ccccc2)c(=O)[nH]1)Nc1cccc(C(F)(F)F)c1 | 123
9 | O=C(COc1coc(CN2CCc3ccccc3C2)cc1=O)NCc1ccc2c(c1)OCO2 | 113
10 | COc1ccc(-c2nc(OCC(=O)Nc3cccc(OC)c3)c3c4c(sc3n2)CCCC4)cc1 | 118
11 | CCOC(=O)c1cccc(NC(=O)Cn2cc(-c3nnc(CN4CCCCC4)o3)c3ccccc32)c1 | 118
12 | COc1ccc2sc(Nc3ccc(F)cc3F)nc2c1 | 112
13 | Cc1cc(NC(=O)Cn2nnc(-c3ccc4c(c3)OCO4)n2)no1 | 118
14 | N=C1NC(=O)C(CC(=O)Nc2cccc3ccccc23)S1 (centres undefined) | 112
15 | COc1ccc(CN2Cc3ccncc3C2=O)c(OC)c1 | 117
16 | COc1ccc(NC(=O)COc2nc(C)nc3onc(-c4ccccc4)c23)c(OC)c1 | 131
17 | O=c1cc(-c2ccc(F)cc2)nc(N2CCN(Cc3ccc4c(c3)OCO4)CC2)[nH]1 | 140
18 | Cc1ccc([N+](=O)[O-])cc1NC(=O)CC(C(=O)O)N1CCN(C)CC1 (centres undefined) | 120
19 | CCOC(=O)CCCSc1nc2sc3c(c2c(=O)[nH]1)CCC3 | 116
20 | Cc1ccc(S(=O)(=O)N2CCCc3ccc(NC(=O)c4ccc5c(c4)OCO5)cc32)cc1 | 99.7
21 | Cc1cc(C)c2sc(NNC(=O)c3nc4ccccc4s3)nc2c1 | 119 ± 18
22 | Cc1nn(C)c2ncc(C(=O)NC3CC3)c(NCc3ccccc3)c12 | 106
23 | O=C1N/C(=N\c2ccccc2)c2c1cccc2[N+](=O)[O-] | 105
24 | CC1CN(CCc2ccccc2)c2nc3c(c(=O)n(CC(=O)OCc4ccccc4)c(=O)n3C)n2C1 (centres undefined) | 118
25 | CCOc1ccc(-c2csc3c(=O)n(C)cnc23)cc1OCC | 104
26 | CC1CN(S(=O)(=O)c2ccc(C(=O)NNC(=O)c3ccc4ncsc4c3)cc2)CC(C)O1 (centres undefined) | 105

A second format for 2 compounds above:
Row	SMILES	host macrophage viability [%]
12	COc1ccc2sc(Nc3ccc(F)cc3F)nc2c1	112
17	O=c1cc(-c2ccc(F)cc2)nc(N2CCN(Cc3ccc4c(c3)OCO4)CC2)[nH]1	140

Next structures.

Row | SMILES | host macrophage viability [%]
27 | CCOc1ccc(NC(=O)c2ccc(CNc3nc4[nH]c(C)cc(=O)n4n3)cc2)cc1 | 93.2
28 | N=C1SCC(=O)N1c1ncc(Cc2ccccc2F)s1 | 129
29 | Cn1c(SCC(=O)c2ccc(F)cc2)ncc(C(=O)Nc2ccccc2)c1=O | 126
30 | CC1(C)CC(=O)c2sc(NC(=O)c3cccc(N4C(=O)CCC4=O)c3)nc2C1 | 105 ± 16
31 | CCN(CC)S(=O)(=O)c1ccc(C(=O)Nc2nnc(-c3cccc(S(C)(=O)=O)c3)o2)cc1 | 133
32 | COc1ccccc1-n1c(=O)[nH]c2c(C(N)=O)nc(-c3cccc(OC)c3O)nc21 | 122
33 | CN(C(=O)c1cnc(N2CCCCC2)c2ccccc12)C1CCCCC1 | 123
34 | C=CCNC(=O)Cn1nc(-c2cc(C)oc2C)cc(N)c1=O | 94.7
35 | CCCCC1CCC(C(=O)Oc2cc(C)[nH]c(=O)c2[N+](=O)[O-])CC1 (centres undefined) | 109
36 | CCc1nnc2ccc(C(=O)NCc3ccc(Cl)cc3)cn12 | 116
37 | O=C(COc1ccccc1)Nc1nc2c(cc3c4c(cccc42)CC3)s1 | 119 ± 16
38 | O=C(O)CCCN1C(=O)c2cccc([N+](=O)[O-])c2C1=O | 114 ± 1.7
39 | COc1ccccc1NS(=O)(=O)c1cc(C)c2[nH]c(=O)cc(C)c2c1 | 119
40 | NC(=O)C1(N2CCCCC2)CCN(c2ccc(NS(=O)(=O)c3ccccc3)c(C(=O)O)c2)CC1 | 139
41 | COc1cccc2cc(C(=O)Nc3ccc(F)cc3)/c(=N/NS(=O)(=O)c3ccccc3)oc12 | 109
42 | O=C1CCCN2N=C(SCC(=O)NCc3ccco3)SC2=N1 | 121
43 | O=C(CCn1nnc2ccccc21)N/N=C/c1cccc(O)c1 | 126
44 | O=C(Cn1cnc2c(cnn2-c2ccc(Cl)cc2)c1=O)N1CCc2ccccc21 | 116 ± 19
45 | CCCc1ccc(C(=O)CC2(O)C(=O)Nc3ccc(C)cc32)cc1 (centres undefined) | 146
46 | CCCCc1ccc(NC(=O)CSc2nc(=O)n3ccccc3n2)cc1 | 118
47 | CCOc1ccccc1NC(=O)c1c[nH]c(=O)n(-c2ccc(F)cc2)c1=O | 106 ± 6.4
48 | O=C(Nc1ncc(Cc2ccc(F)cc2)s1)c1ccc2nccnc2c1 | 127
49 | O=C(Nc1ccccc1Cl)c1cccnc1-c1ccsc1 | 110
50 | CCOc1ccc(-c2csc(/C(C#N)=C\c3ccc(O)c(OCC)c3)n2)cc1 | 149 ± 6.7
51 | CC(C(=O)Nc1ncc([N+](=O)[O-])s1)N1C(=O)c2ccccc2S1(=O)=O (centres undefined) | 104
52 | CC(C)c1ccc(/C=C(\C#N)C(=O)Nc2cccc(Br)c2)cc1 | 113

Row | SMILES | host macrophage viability [%]
53 | CSc1nc2cc(NC(=S)NC(=O)c3ccccc3)ccc2s1 | 118
54 | Cn1c2ccccc2n2c(=O)n(CC(=O)N3CCOCC3)nc12 | 120
55 | O=C(CS(=O)(=O)Cc1ccccc1)Nc1nc2ccc(Br)cc2s1 | 102
56 | Cc1nn2c(NCc3ccccn3)cc(C(C)(C)C)nc2c1-c1ccc(F)cc1 | 102
57 | COc1ccccc1NC(=O)CSc1nnc2sc3ccccc3n12 | 115
58 | COC(=O)c1ccccc1NC(=O)c1cc2cccnc2n(C)c1=O | 112
59 | CCOc1ccc(CCNc2nccn(-c3ccc4c(c3)OCO4)c2=O)cc1OCC | 114
60 | COc1ccc(OC)c(NC(=O)C(=O)NCc2cccs2)c1 | 98.2
61 | CC(C)(C)c1ccc(-c2cc(=O)c3cc(NC(=O)c4cccnc4)ccc3o2)cc1 | 102
62 | Cc1ccc(-n2c(N)cc(=O)nc2SCC(=O)Nc2nccs2)cc1 | 107
63 | Cc1cc(C)nc(SCc2cc(=O)c(OC(=O)c3cc(Cl)ccc3Cl)co2)n1 | 121
64 | O=C(O)CCCN1C(=O)C2C3CC(C2C1=O)C1C(c2cccnc2)c2sc(=O)[nH]c2SC31 (centres undefined) | 116
65 | Cc1ccc(Nc2nc(C(=O)NCc3ccco3)cc3occc23)cc1 | 87
66 | CC(=O)c1cccc(NC(=O)NN2CCOCC2)c1 | 111
67 | O=C(NCC1COCCO1)c1ccc(C(F)(F)F)nc1N1CCN(CCO)CC1 (centres undefined) | 114
68 | CCCc1nnc(SCC(=O)Nc2ccccc2C(=O)OC)n1-n1cccc1 | 113
69 | O=c1[nH]cncc1-c1nc(-c2ccc(Cl)cc2)no1 | 109
70 | CCOc1ccc(CNC(=O)CCn2cnc3onc(-c4ccccc4)c3c2=O)cc1 | 106
71 | Cn1c(SCC(=O)N/N=C/c2ccc(Cl)cc2)nc2ccccc21 | 121
72 | O=C(NCCc1ccccc1)c1cccnc1Nc1ccc2c(c1)OCCO2 | 103
73 | COc1cc(NS(=O)(=O)c2ccc(NC(=O)Nc3ccccc3)cc2)nc(OC)n1 | 124
74 | O=C(NCc1ccc2[nH]c3c(c2c1)CCCC3)C(=O)c1c[nH]c2ccccc12 | 116 ± 6.8
75 | COc1ccc(NC(=O)Cn2c(=O)n(-c3ccccc3)c(=O)c3oc4ccccc4c32)cc1OC | 110
76 | Cc1cc(=O)n2nc(-c3ccc(Cl)cc3)nc2n1CC(=O)Nc1ccccc1F | 117
77 | Cc1onc(-c2ccccc2Cl)c1C(=O)Oc1cc(N)n(S(=O)(=O)c2ccc(F)cc2)n1 | 113
78 | CC(C)c1ccc(Cc2cnc(N3C(=N)SCC3=O)s2)cc1 | 131

Row | SMILES | host macrophage viability [%]
79 | O=C(CSc1nc(=O)n(CCO)c2c1CCCC2)Nc1ccccc1[N+](=O)[O-] | 101
80 | O=C(CN1C(=O)c2ccccc2C1=O)Nc1ccc2c(c1)C(=O)NC2=O | 114
81 | CCc1cccc(NC(=O)c2c(-c3ccccc3)nnc3ccccc23)c1 | 120
82 | Cc1nn2c(C)c(C(=O)NCc3ccc(F)cc3)cnc2c1-c1ccccc1 | 110
83 | O=C(O)CCc1nc(N2CCCCC2)c2c(-c3ccc(F)cc3)noc2n1 | 111
84 | Cc1nc2ccc(C(=O)NC(c3ccncc3)c3ccccc3C)cc2s1 (centres undefined) | 118
85 | Clc1ccc(-n2ncc3c(Cl)ncnc32)cc1 | 122
86 | CCc1cc2ccc(C)c(C)c2nc1SCC(=O)NNC(=O)c1ccco1 | 110
87 | NC(=O)N/N=C/c1sc(=O)n(Cc2cccc(C(=O)O)c2)c1Cl | 121
88 | O=C1C=C(Nc2ccccc2)C(=O)N1c1ccccc1Cl | 101
89 | COc1ccc(CCNC(=O)Cc2csc3nc(-c4ccc(F)cc4)cn23)cc1OC | 118
90 | O=C(Nc1cccc2c1CCCC2)c1cc(-c2ccccn2)[nH]n1 | 124
91 | CCn1c(SCc2nc(-c3cccc(Cl)c3)no2)nc2cc3c(cc2c1=O)OCO3 | 129
92 | COc1ccc(CNC(=O)c2cc(-c3ccccc3F)nc3[nH]nc(-c4cccc(OC)c4)c23)cc1 | 140
93 | COc1ccc(C(=O)NCC(c2cccs2)N2CCc3ccccc3C2)cc1 (centres undefined) | 113
94 | O=C(Nc1ccc2c(c1)OCCO2)C(=O)Nc1cccc2cccnc12 | 111
95 | CSc1cccc2sc(Nc3cccc(C)c3)nc12 | 123
96 | Cc1noc2ncnc(NCCN3CCCCC3C)c12 (centres undefined) | 114
97 | O=C1c2ccccc2-c2nn(C(=O)C3CCN(S(=O)(=O)c4cccs4)CC3)c3cccc1c23 | 149
98 | CC(=O)Nc1ccc(NC(=O)Cn2c(-c3nnc(C)o3)cc3ccccc32)cc1 | 109
99 | O=C(NCCS(=O)(=O)N1CCC2(CC1)OCCO2)c1ccc2c(c1)OCO2 | 110
100 | Cc1ccc(C)c(NC(=O)Cn2ncn3nc4c(c3c2=O)CCCC4)c1 | 124
101 | CC(C)c1ccc2nc(SCC(=O)Nc3c[nH]c(=O)[nH]c3=O)c(C#N)cc2c1 | 107
102 | COc1ccc(S(=O)(=O)NCc2ccco2)cc1C(=O)O | 107 ± 1.2
103 | CCCc1cc(CNC(=O)C2CC(c3cnn(C)c3)=NO2)on1 (centres undefined) | 111
104 | CCc1ccc(-n2nc(-c3nc(-c4ccncc4)no3)c3ccccc3c2=O)cc1 | 109

Copied from above: nos. 94 to 96
Row | SMILES | host macrophage viability [%]
94 | O=C(Nc1ccc2c(c1)OCCO2)C(=O)Nc1cccc2cccnc12 | 111
95 | CSc1cccc2sc(Nc3cccc(C)c3)nc12 | 123
96 | Cc1noc2ncnc(NCCN3CCCCC3C)c12 (centres undefined) | 114
